Data: paper PMC12144310
No constants are given. Whether binding was seen depends on the method and setting. In cells and extracts the contact can be indirect. These calls come from enrichment with a bait or labelling near it, and not all partners need be listed. Tags and fused reporters may be left off the sequences shown.

Protein sequences, listed by entry. Tags and fused reporters are not part of them.
UniProt P21796: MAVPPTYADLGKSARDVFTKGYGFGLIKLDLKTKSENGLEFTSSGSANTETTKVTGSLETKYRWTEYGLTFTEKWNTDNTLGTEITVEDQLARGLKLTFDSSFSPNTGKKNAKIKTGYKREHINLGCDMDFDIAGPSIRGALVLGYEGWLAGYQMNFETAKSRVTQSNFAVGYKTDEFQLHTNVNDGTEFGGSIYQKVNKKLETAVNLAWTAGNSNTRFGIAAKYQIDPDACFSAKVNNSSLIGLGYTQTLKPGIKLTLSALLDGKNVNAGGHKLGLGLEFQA

Target: CRYAB with a TurboID tag fused to its C-terminus (UniProt P02511)
Experiment: proximity labelling; BioID: CRYAB-TurboID or cytoplasmic TurboID in wild-type or TANGO2 knockout CAL51 cells, 500 µM biotin for 10 min; enrichment of biotinylated proteins, mass spectrometry

- binding: binds
Substance: VDAC1 (from UniProt P21796 1-283)
